From article PMC7819943, “Rice protein-binding microarrays: a tool to detect cis-acting elements near promoter regions in rice” come the findings set out here.

Sequences of proteins named here, by UniProt entry; tags and fusion partners are left off.
UniProt Q0JBA9, entry or part of it: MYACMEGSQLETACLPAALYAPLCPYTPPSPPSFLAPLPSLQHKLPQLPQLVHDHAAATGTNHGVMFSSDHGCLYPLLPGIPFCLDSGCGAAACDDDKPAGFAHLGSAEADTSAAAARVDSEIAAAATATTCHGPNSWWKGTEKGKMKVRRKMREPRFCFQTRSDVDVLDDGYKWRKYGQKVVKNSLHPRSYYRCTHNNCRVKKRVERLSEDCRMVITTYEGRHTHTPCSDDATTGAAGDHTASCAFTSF

The other results are listed elsewhere or left out.

In this experiment the target is OsWRKY34 (Oryza sativa, UniProt Q0JBA9 1-250). In words: protein-binding microarray (RPBM); PBS, 2% BSA, 51.3 ng/ul salmon testes DNA, 50 uM zinc acetate, 200 nM TF, 25 C, 1 h; high values mean tight binding. The following applies: protein: recombinant; tags: N-terminal polyhistidine and DsRed monomer fusion (pET32a); label: CyDye5-dUTP incorporated in the synthesized complementary strand; 3' TTTTT single-stranded linker to array surface; dsDNA, one strand shown. Summed up:
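Per-feature fluorescence intensity (arbitrary units), read on an Axon 4000B scanner, is the binding signal. Transcription factors carrying an N-terminal polyhistidine tag and DsRed fusion were expressed in E. coli BL21-CodonPlus and purified on Ni–NTA. A custom Agilent array, made double-stranded by primer extension with Cy5-dUTP and blocked with 2% BSA, was incubated with 200 nM protein in PBS, 2% BSA, salmon testes DNA and 50 µM zinc acetate at 25 °C for 1 h and then washed.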
As for “TCTTCTCCCAAGTTGACTCCCGATCCATCACTGGCAATGCCGGAGTCACCTAGTGCAG”, the binding signal is 8410 fluorescence intensity (a.u.).

Turning to “TTTTTTCCTAAGGCATACATAATTTTAGCTCTTTTTCTTGCGGAGTCACCTAGTGCAG”, the binding signal is 8590 fluorescence intensity (a.u.).

Turning to “GGATTGGGGCACTTGTTGATGGTATTTCTTAGATTTTCTCCGGAGTCACCTAGTGCAG”, the binding signal was 12700 fluorescence intensity (a.u.).

For the sequence “CCCAGCCAGTTCTTCCTCTGTTTTTTCCCCAGCCGCCCGCCGGAGTCACCTAGTGCAG”, the binding signal was 8920 fluorescence intensity (a.u.).

For the sequence “AGACGTTGACCACATTTCTGGCTGAAAATCCAGTGTTCTTCGGAGTCACCTAGTGCAG”, the binding signal is 8910 fluorescence intensity (a.u.).

Turning to “TCCACTCCACTCCGCATTTCCACTGCATGGGTCCATTTACCGGAGTCACCTAGTGCAG”, the binding signal was 12600 fluorescence intensity (a.u.).

Turning to “ACTATAGTCTGCTTTCCGAATTTACCTCTCTGCCGGCCTTCGGAGTCACCTAGTGCAG”, the binding signal is 15600 fluorescence intensity (a.u.).

Regarding “TTCGATCGTATATTTTACTTTTGTTTTTTTTAAGGTCTTCCGGAGTCACCTAGTGCAG”, the binding signal was 9880 fluorescence intensity (a.u.).

Take “CCGATCCCGAGGAGAGAGGAAGGGGAGGGGCGCTGTATTACGGAGTCACCTAGTGCAG”: the binding signal was 12600 fluorescence intensity (a.u.).

Regarding “TTTGCAAATATGGCTAATTACGGTCCGTCTGCAACCAAATCGGAGTCACCTAGTGCAG”, the binding signal was 8110 fluorescence intensity (a.u.).

Regarding “TGACTCTATTTTTTCCTTCGGTCTGCTGTCTGCACTCTGGCGGAGTCACCTAGTGCAG”, the binding signal is 11300 fluorescence intensity (a.u.).

Take “CGGCCCGCCACAACTGCTGTCGTTCCTAGTTCCTCGCCGTCGGAGTCACCTAGTGCAG”: the binding signal was 8580 fluorescence intensity (a.u.).

In the case of “TGCAGTGGCAGGGGTGTGTGATTTCAACTTCGAGTTTCCGCGGAGTCACCTAGTGCAG”, the binding signal was 8080 fluorescence intensity (a.u.).

For the sequence “AGGGACAGAGAAAGCAAGCACAACCGTTCATATCGATCCCCGGAGTCACCTAGTGCAG”, the binding signal was 8750 fluorescence intensity (a.u.).

“CCGTCCCGTCTCCTCAGCTCCTTGCGCCATCTCGCTGCTGCGGAGTCACCTAGTGCAG”: the binding signal is 10200 fluorescence intensity (a.u.).

As for “GCAAACTCGGTTAGTGTTAGTTATCGTTTTTCCGTTTTTTCGGAGTCACCTAGTGCAG”, the binding signal was 8820 fluorescence intensity (a.u.).

On to “TTTTCTTTTTTTTTTCCTTTTCCTTTTTTCTTTTCAATTTCGGAGTCACCTAGTGCAG”, for which the binding signal is 10900 fluorescence intensity (a.u.).

“GCATGTTGTTTTACTCAATTCCTAAGGTGCTGTAGACAGCCGGAGTCACCTAGTGCAG”: the binding signal is 8400 fluorescence intensity (a.u.).

Take “GAGGAAGTGGTTGCGCCGACGACGAGGTGAGCGGGTTGACCGGAGTCACCTAGTGCAG”: the binding signal is 8860 fluorescence intensity (a.u.).

As to “AACTTATGAGAGGCGGTTGACTTGACTGCACATATGCAAACGGAGTCACCTAGTGCAG”, the binding signal is 8030 fluorescence intensity (a.u.).

Take “GCTATTGCTTAGGATCTGCTTTCACCTTGCTAGCTCCGATCGGAGTCACCTAGTGCAG”: the binding signal is 8570 fluorescence intensity (a.u.).

With “TACAGCGTCCTGTTTGTTTGTGTTGGGGCGTGGCAGTGTCCGGAGTCACCTAGTGCAG”, the binding signal was 8420 fluorescence intensity (a.u.).

“TTGTGTGATAGTGTGGGTTGCGTTCTTTTTTTAGTGTGTACGGAGTCACCTAGTGCAG”: the binding signal is 9030 fluorescence intensity (a.u.).

As to “AACAGTCAGTGTGTATATCCTGTATCTGTCACACCTCTTTCGGAGTCACCTAGTGCAG”, the binding signal was 8450 fluorescence intensity (a.u.).

For “CTTGTCCATGGTGCAGTTCATCTTGTTGATCCTTGCAGATCGGAGTCACCTAGTGCAG”, the binding signal is 9410 fluorescence intensity (a.u.).

“TGTCCATTCGTCCTCATCCCACAAACCCCTGAGCGAGCGACGGAGTCACCTAGTGCAG”: the binding signal was 11800 fluorescence intensity (a.u.).

With “CGCGTAATAATATTTGGAGAAAGTCAACCACGCGTTCCATCGGAGTCACCTAGTGCAG”, the binding signal is 8070 fluorescence intensity (a.u.).

“AACTCGCTAGTCTCAACTTACTACACATGGTTGTCTATATCGGAGTCACCTAGTGCAG”: the binding signal is 9020 fluorescence intensity (a.u.).

For “GTTCACTTTGACGGGCCACCACCAAGTCGCCTCCTCAGATCGGAGTCACCTAGTGCAG”, the binding signal was 8400 fluorescence intensity (a.u.).

As to “GTGTTGTGTTTATTTTTTTATAATATCCATGATTGTAATCCGGAGTCACCTAGTGCAG”, the binding signal was 9640 fluorescence intensity (a.u.).

For “AGACTTGGTAGTTGAGGCGGGGTGGAGGAAACTAACCGGACGGAGTCACCTAGTGCAG”, the binding signal is 8210 fluorescence intensity (a.u.).

Regarding “TCTTTCGGAGGTGCTCATAGGGGTAGGGTGTACGTGTGTGCGGAGTCACCTAGTGCAG”, the binding signal was 15400 fluorescence intensity (a.u.).

As to “GCCATCCACTTGTGCTGCCAATTTGCTCAATCCCGACAAGCGGAGTCACCTAGTGCAG”, the binding signal was 8220 fluorescence intensity (a.u.).

Regarding “CAAGGTTATATCCCTAGTCAGTCTATCTATCTATCTATCCCGGAGTCACCTAGTGCAG”, the binding signal is 8500 fluorescence intensity (a.u.).

For the sequence “TACTAATTGTGTCATCATTCGTATTTACTCCCTCCGTTTCCGGAGTCACCTAGTGCAG”, the binding signal is 9780 fluorescence intensity (a.u.).

On to “TTCACCGTTTCTCACGCTGTTACTACGAGTCCGTAAAAACCGGAGTCACCTAGTGCAG”, for which the binding signal was 8140 fluorescence intensity (a.u.).

Take “GTTTTGTGCTCCATGGTGTCCGGGCACCATTGTTGAAATTCGGAGTCACCTAGTGCAG”: the binding signal is 8060 fluorescence intensity (a.u.).

Turning to “TGTTTGTTCCGTTTCGTGATGTTTTGGGCCGGCCCAAGAACGGAGTCACCTAGTGCAG”, the binding signal was 9960 fluorescence intensity (a.u.).

“AACCACCGATCTACATCCAATTCCATGGTCACTTTCTCTCCGGAGTCACCTAGTGCAG”: the binding signal is 8040 fluorescence intensity (a.u.).

For the sequence “GGCTTGGCTCCTCTTCTTCTTATCCCTTGTCCTCGCAACCCGGAGTCACCTAGTGCAG”, the binding signal was 9430 fluorescence intensity (a.u.).

Regarding “CCAAGTAGCCAACACCACGCCTCGATCGATCGGAACACACCGGAGTCACCTAGTGCAG”, the binding signal was 8080 fluorescence intensity (a.u.).

As for “GATTTCTTCTTGGGCTGATCTTGGTGCCAGACTGTTTTGCCGGAGTCACCTAGTGCAG”, the binding signal was 8680 fluorescence intensity (a.u.).

For the sequence “AATTTCGCAGCTGTGCCTGTGCTTACTTGCAGCTAATCTGCGGAGTCACCTAGTGCAG”, the binding signal is 9400 fluorescence intensity (a.u.).

With “TTTTGCCTTTTTCGAGGTTAAGCAACTTGTGCTAGTTTTCCGGAGTCACCTAGTGCAG”, the binding signal is 8160 fluorescence intensity (a.u.).

With “GCGTCCATGACCACTCCTTGCCGCCCCTTGCACGCCATGTCGGAGTCACCTAGTGCAG”, the binding signal is 10100 fluorescence intensity (a.u.).

“ACACTGCAACCTGTGTTCGCTTTTCTGAACAATCCTGACACGGAGTCACCTAGTGCAG”: the binding signal is 8390 fluorescence intensity (a.u.).

With “GGATTTCTCGTCGTTTCTTGCGTGCGGTTGCGTTCTTGATCGGAGTCACCTAGTGCAG”, the binding signal is 10700 fluorescence intensity (a.u.).

Turning to “TATCCTTATCTCTTTCTCCTTCTCTCTACCCTTCGTCAACCGGAGTCACCTAGTGCAG”, the binding signal was 8110 fluorescence intensity (a.u.).

As to “TACTAAAAAAGTCAACGGTGTCATTTGAAACGGAGGGAGTCGGAGTCACCTAGTGCAG”, the binding signal is 11600 fluorescence intensity (a.u.).

On to “TTCTGCCTACTCGATGTCGTATTACGTAGATCCTTGTACCCGGAGTCACCTAGTGCAG”, for which the binding signal is 9570 fluorescence intensity (a.u.).

With “GATTGTTCTTCTCGCTTCTGAATTGTTGTGACCTGTAACTCGGAGTCACCTAGTGCAG”, the binding signal was 8250 fluorescence intensity (a.u.).

As for “TCCGTTTTGCCGTTGGGCTAGCTTAGCTTGTTTTTTTTTTCGGAGTCACCTAGTGCAG”, the binding signal was 12000 fluorescence intensity (a.u.).

Turning to “GAGCTTATAGGGTGGGTTGTGTCCATGGAGTAACTATTATCGGAGTCACCTAGTGCAG”, the binding signal is 18600 fluorescence intensity (a.u.).

With “GCCCACAAACACAAGCGCTGTTTTCCTCTCCTACCCTTTTCGGAGTCACCTAGTGCAG”, the binding signal was 9490 fluorescence intensity (a.u.).
